The nature of the data set: general procedure: hybrid (solid and solution phase) peptide synthesis; 2-CTC resin; TBTU or HBTU / 6-Cl-HOBT / DIEA (solid phase); HBTU/HOBt/DIEA (solution phase). The conditions noted are these: purification step, acetate.

As for (Aib^8, X^17-18, Aib^35) GLP-1(7-36), the “final HPLC purity” value (HPLC (area normalised, AN)) was 98+%. Moreover, the step yield by setting is: (run 1) 90.42% recovery; (run 2) 92% recovery; (run 3) 74.6% recovery; (contained/contained) “˜60%”.

The values are drawn from US20110213082 (published 2011).
